Reference: the supplement of paper PMC12889115
The list shows a part of the results. These are raw signals, not scaled to a control.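 In the initial screen, polymyxin B was used at a concentration that permeabilizes Salmonella's outer membrane but not its inner membrane. Maximum growth was set by DMSO wells with or without polymyxin B. Since plates varied, data were ranked per plate, and compounds giving the lowest OD600 advanced as hits.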

Tested on: Salmonella enterica serovar Typhimurium SL1344
Test: bacterial growth OD600 after 18 h with compound and polymyxin B; higher = more bacterial growth (less inhibition)
Conditions: 50 µM, Mueller-Hinton broth

| SMILES | bacterial growth OD600 (polymyxin B 0.75 µg/mL) | bacterial growth OD600 (polymyxin B 1 µg/mL) |
| --- | --- | --- |
| CSc1nc(C(=O)N2CCOC(CC3CCCCC3)C2)cs1 (configuration not stated) | 0.716 | – |
| O=C(c1ccc2c(c1)OCO2)N1CCCC(Nc2ccc(F)cc2)C1 (configuration not stated) | – | 0.931 |
| CCOC(=O)C1(Cc2cccc(OC)c2)CCN(Cc2ccc(OC)c(O)c2)CC1 | – | 1.11 |
| CSCC(=O)N1CCCC(CCc2ccccc2C)C1 (configuration not stated) | 0.327 | – |
| Cc1cc(C)n(CCC(=O)N2CCc3c(cnc(C)c3CNS(=O)(=O)c3cccs3)C2)n1 | 0.818 | – |
| O=C(c1cc(Cn2cnc3ccccc32)[nH]n1)N1CCSCC1 | – | 0.928 |
| COC1CCN(c2ccc(C(=O)NCCCc3c(C)noc3C)cn2)CC1 | – | 1.09 |
| O=C(NCCc1cccc(F)c1)C1CCCN(C2CCN(C(=O)C3CC3)CC2)C1 (configuration not stated) | – | 0.81 |
| Cn1c(-c2ccncc2)nc2cc(C(=O)NCc3ccccc3Cl)cc(NC(=O)C3CCC3)c21 | 0.776 | – |
| CC(=O)c1ccc(OCc2cc(C(=O)N(C)CC(O)c3ccccc3)no2)cc1 (configuration not stated) | – | 0.933 |
| Cc1cc(C(=O)NC2CCCc3nc(-c4ccccc4)ncc32)no1 (configuration not stated) | – | 0.993 |
| COc1cccc(C(=O)N2CCc3c(cnc(C)c3CNS(=O)(=O)c3cccs3)C2)c1OC | 0.82 | – |
| O=C(c1n[nH]c2c1CCC2)N1CC[C@@H](N2CCN(c3ccccc3F)CC2)[C@H](O)C1 | – | 0.944 |
| Cc1nc(CN(C)C(=O)CC2(c3ccccc3)CC(=O)N(CCCOc3cccnc3)C2=O)cs1 (configuration not stated) | 0.951 | – |
| Cc1nnc(-c2cccc(NC(=O)C3CCN(C(=O)C4CC45CCC5)CC3)c2)s1 (configuration not stated) | – | 0.976 |
| CCOC(=O)C1(Cc2ccccc2C)CCCN(Cc2cc[nH]n2)C1 (configuration not stated) | – | 0.9 |

As a working copy, 2 of the compounds above.

| SMILES | bacterial growth OD600 (polymyxin B 0.75 µg/mL) | bacterial growth OD600 (polymyxin B 1 µg/mL) |
| --- | --- | --- |
| CSc1nc(C(=O)N2CCOC(CC3CCCCC3)C2)cs1 (configuration not stated) | 0.716 | – |
| O=C(c1ccc2c(c1)OCO2)N1CCCC(Nc2ccc(F)cc2)C1 (configuration not stated) | – | 0.931 |

More records follow:

| SMILES | bacterial growth OD600 (polymyxin B 0.75 µg/mL) | bacterial growth OD600 (polymyxin B 1 µg/mL) |
| --- | --- | --- |
| COc1ccc(F)c(CC2(CCC(=O)NCCc3nc4ccccc4c(=O)[nH]3)CCC(=O)N2)c1 (configuration not stated) | 0.806 | – |
| O=C(NCc1ccncc1)c1ccc(OC2CCN(Cc3ccc(CO)o3)CC2)cc1 | – | 1.21 |
| CC(C)N(C)CC1(O)CCCN(CCc2ccccc2)C1=O (configuration not stated) | – | 0.968 |
| Cc1ccc(C(=O)NC2CC(C)(C)Cc3nc(N4CCOCC4)ncc32)cn1 (configuration not stated) | – | 0.852 |
| CC(C)(C)C(=O)NC1CC(=O)N(Cc2ccc(F)cc2)C1 (configuration not stated) | – | 0.856 |
| CN(C(=O)c1ccc(OC2CCN(S(=O)(=O)N(C)C)CC2)cc1)C(C1CC1)C1CC1 | – | 1.07 |
| O=C1CCC(CCNCCOc2ccc(F)cc2)N1CC1CCCCC1 (configuration not stated) | 0.67 | – |
| Cc1ccc(C2(c3noc(CN4CCC(Oc5cccnc5)CC4)n3)CCCC2)cc1 | – | 0.017 |
| COC(=O)c1cccc(C(=O)N2CCCC(Nc3ccc(F)cc3)C2)c1 (configuration not stated) | – | 0.878 |
| Cc1cccc(-n2cc(CN3CCOCC3)c(-c3cccc(F)c3)n2)c1 | – | 0.496 |
| Cc1ccc(Oc2ncccc2CNC(=O)c2ccc(CN(C)C)o2)c(F)c1F | – | 1.05 |
| O=C(Nc1cccc(-n2cccn2)c1)C1CCCN1C(=O)c1ccccn1 (configuration not stated) | – | 0.816 |
| COc1ccc(C(=O)N2CCC(C(Cc3ccccc3)N(C)C(=O)c3cc(C)nn3C)CC2)cc1F (configuration not stated) | 0.964 | – |
| CCC(NCc1c[nH]nc1-c1ccc(C)c(C)c1)c1ccc(F)cc1 (configuration not stated) | – | 0.022 |
| O=C(CCn1cncn1)N1CCCC(CCc2ccc(F)cc2F)C1 (configuration not stated) | 0.805 | – |
| O=C(CN1Cc2ccccc2OC(c2ccsc2)C1)N1CCC(N2CCSCC2)CC1 (configuration not stated) | 0.846 | – |
